At least one compound was matched to its structure with a doubt left.
Target: adrenergic α1 receptor
Assay: adrenergic α1 receptor binding test ([3H] Prazosin Binding Test)
Parameters: species or system SD rats
Settings: 1 nM [3H] Prazosin, rat cortex, room temperature, 60 minutes
Description: The compounds of the present invention were subjected to each of serotonin S2 receptor binding test, dopamine D2 receptor binding test and adrenergic α1 receptor binding test.
The following reagents were used in this test.
These reagents and samples were each dissolved in 10% ethanol before use. Among them, water-insoluble compounds were each dissolved in ethanol and the obtained solution was diluted with distilled water to an ethanol concentration of 10%. Further, Methylsergide maleate was used in a state dissolved in distilled water.
SD rats aged 6 to 8 weeks were used.
SD rats were each slaughtered with a guillotine to extirpate its cerebrum. The cortex and corpus striatum were separated from the cerebrum. The former was used in serotonin S2 receptor binding test and adrenergic α1, receptor binding test, while the latter was used in dopamine D2 receptor binding test. […]
Each IC50 value was calculated by the probit method and each Ki value was determined by the following formula: [formula]
In the above formula, C represents the concentration of radioligand, and Kd represents the affinity of radioligand for the receptor as determined by the Scatchard analysis. […]
This test was conducted in the same manner as that of the binding test of [^3 H] […] Prazosin at room temperature for 60 minutes and that the binding detected in the presence of 10 μl of Phentolamine was regarded as nonspecific binding.

For `CCN1CCN(c2cc(NS(=O)(=O)c3ccccc3)c(OC)c(-c3ccccc3)c2)CC1` [Example 120], the Ki was 0.0776 µM.

From patent US6281214A, “Biphenyl derivatives” (Eisai Co., Ltd, priority 1994, dated 2001)
